Laboratory results published in US6291637A (priority 1999, dated 2001).
Entries after “also recorded” stand apart in the source; their conditions may differ. Not every detail of the peptide structures is certain; ends, links or a residue may be inferred. Where no end group is shown, it is not given here.

Assays:
[1] = system: viral mRNA (IRES-mediated) translation; type: biochemical
viral IRES elements = type: binding

**Q.** What does the source list for AALEAKICHQIEYYFGDF [LAP]?
**A.** inhibition of viral mRNA translation in vitro [1]: selective inhibition of viral mRNA translation by micromolar concentrations; competition with full length La for binding to viral IRES/viral RNA (viral IRES elements): competes with full length La; also recorded: can compete with the full-length La; inhibition of PV replication (PV): effective in entering host cells and inhibiting PV replication; reduction in viral plaques (PV): 1000 fold
